Taken from: PubChem BioAssay AID493246 (Drosophila RNAi Screening Center, 2011)
In all, the deposit lists about 21,000 reagents; this is a random part of those that have a named target and a result. In the full data, 429 (2%) are marked active. 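Values are raw and not normalised between plates; calls rest on per-plate z-scores that were not deposited.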 The numbers tell different reagents against one gene apart. The record does not give: the amount of reagent, the time to read-out.

Screen: 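Genes fly cells need to grow and stay alive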 (primary screen)
Cells: Drosophila Kc and S2R+ cells
Reagent: long dsRNA against Drosophila genes
Measured: 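Cell number per well after knock-down, printed as raw plate values; calls were based on per-plate z-scores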
Scale: Kc cell number and S2R+ cell number: higher = more cells remaining
Active means: 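Counted as a hit if cell number falls by a z-score of at least 3 within its plate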

wol showed Kc cell number, rep 1 = 1.42e6; Kc cell number, rep 2 = 1.44e6; S2R+ cell number, rep 1 = 5.46e5; S2R+ cell number, rep 2 = 9.84e5; inactive.
CG32793 #1 scored Kc cell number, rep 1 = 1.47e6; Kc cell number, rep 2 = 1.50e6; S2R+ cell number, rep 1 = 1.04e6; S2R+ cell number, rep 2 = 1.14e6; inactive.
After knock-down of CG32793 #2, the screen gave Kc cell number, rep 1 = 1.42e6; Kc cell number, rep 2 = 1.46e6; S2R+ cell number, rep 1 = 1.03e6; S2R+ cell number, rep 2 = 1.12e6; inactive.
For CG6951 the deposit lists Kc cell number, rep 1 = 1.71e6; Kc cell number, rep 2 = 1.77e6; S2R+ cell number, rep 1 = 1.34e6; S2R+ cell number, rep 2 = 1.50e6; inactive.
Depletion of CG30393 resulted in: Kc cell number, rep 1 = 1.65e6; Kc cell number, rep 2 = 1.80e6; S2R+ cell number, rep 1 = 1.43e6; S2R+ cell number, rep 2 = 3.37e5; inactive.
After knock-down of CG15530, the screen gave Kc cell number, rep 1 = 1.43e6; Kc cell number, rep 2 = 1.46e6; S2R+ cell number, rep 1 = 9.91e5; S2R+ cell number, rep 2 = 1.11e6; inactive.
Cad87A gave Kc cell number, rep 1 = 1.52e6; Kc cell number, rep 2 = 1.70e6; S2R+ cell number, rep 1 = 1.32e6; S2R+ cell number, rep 2 = 1.37e6; inactive.
Silencing of htt came out at: Kc cell number, rep 1 = 1.46e6; Kc cell number, rep 2 = 1.48e6; S2R+ cell number, rep 1 = 1.01e6; S2R+ cell number, rep 2 = 1.10e6; inactive.
Silencing of CG15096 gave: Kc cell number, rep 1 = 1.46e6; Kc cell number, rep 2 = 1.66e6; S2R+ cell number, rep 1 = 1.33e6; S2R+ cell number, rep 2 = 1.42e6; inactive.
After knock-down of Ir60b, the record shows Kc cell number, rep 1 = 1.51e6; Kc cell number, rep 2 = 1.54e6; S2R+ cell number, rep 1 = 1.30e6; S2R+ cell number, rep 2 = 1.41e6; inactive.
With knock-down of CG3651, the screen gave Kc cell number, rep 1 = 1.53e6; Kc cell number, rep 2 = 1.56e6; S2R+ cell number, rep 1 = 1.26e6; S2R+ cell number, rep 2 = 3.14e5; inactive.
After knock-down of CG6472 the results were Kc cell number, rep 1 = 1.47e6; Kc cell number, rep 2 = 1.53e6; S2R+ cell number, rep 1 = 1.10e6; S2R+ cell number, rep 2 = 1.23e6; inactive.
Knock-down of Imp #1 gave: Kc cell number, rep 1 = 1.27e6; Kc cell number, rep 2 = 1.67e6; S2R+ cell number, rep 1 = 1.23e6; S2R+ cell number, rep 2 = 1.26e6; inactive.
Against Imp #2, the values are Kc cell number, rep 1 = 7.02e5; S2R+ cell number, rep 1 = 9.34e5; inactive.
Knock-down of Acox57D-d came out at: Kc cell number, rep 1 = 1.38e6; Kc cell number, rep 2 = 1.46e6; S2R+ cell number, rep 1 = 1.16e6; S2R+ cell number, rep 2 = 1.23e6; inactive.
Knock-down of CG10185 resulted in: Kc cell number, rep 1 = 1.26e6; Kc cell number, rep 2 = 1.33e6; S2R+ cell number, rep 1 = 1.19e6; S2R+ cell number, rep 2 = 1.32e6; inactive.
Against Incenp, the entry reads Kc cell number, rep 1 = 1.57e6; Kc cell number, rep 2 = 1.57e6; S2R+ cell number, rep 1 = 1.20e6; S2R+ cell number, rep 2 = 1.36e6; inactive.
CG17024 (retired record) scored Kc cell number, rep 1 = 1.81e6; Kc cell number, rep 2 = 1.94e6; S2R+ cell number, rep 1 = 1.20e6; S2R+ cell number, rep 2 = 1.39e6; inactive.
For eya, the values are Kc cell number, rep 1 = 1.27e6; Kc cell number, rep 2 = 1.42e6; S2R+ cell number, rep 1 = 5.57e5; S2R+ cell number, rep 2 = 4.73e5; inactive.
Meltrin gave Kc cell number, rep 1 = 1.54e6; Kc cell number, rep 2 = 1.51e6; S2R+ cell number, rep 1 = 1.29e6; S2R+ cell number, rep 2 = 1.29e6; inactive.
Against ND-B15 the deposit lists Kc cell number, rep 1 = 1.24e6; Kc cell number, rep 2 = 1.48e6; S2R+ cell number, rep 1 = 1.13e6; S2R+ cell number, rep 2 = 1.21e6; inactive.
